Reference: publication PMC9334634

Target: VDAC (human (endogenous in HepG2))
Assay: co-IP; CHAPS lysates of HepG2 EV cells; IP with anti-VDAC antibody overnight in the cold, magnetic protein A/G beads, immunoblot with HKDC1 antibody; HKDC1-KO cells as control

binding: binds
B1: hexokinase domain containing 1 (HKDC1) (protein, UniProt Q2TB90-1 1-917)
chain: MFAVHLMAFYFSKLKEDQIKKVDRFLYHMRLSDDTLLDIMRRFRAEMEKGLAKDTNPTAAVKMLPTFVRAIPDGSENGEFLSLDLGGSKFRVLKVQVAEEGKRHVQMESQFYPTPNEIIRGNGTELFEYVADCLADFMKTKDLKHKKLPLGLTFSFPCRQTKLEEGVLLSWTKKFKARGVQDTDVVSRLTKAMRRHKDMDVDILALVNDTVGTMMTCAYDDPYCEVGVIIGTGTNACYMEDMSNIDLVEGDEGRMCINTEWGAFGDDGALEDIRTEFDRELDLGSLNPGKQLFEKMISGLYLGELVRLILLKMAKAGLLFGGEKSSALHTKGKIETRHVAAMEKYKEGLANTREILVDLGLEPSEADCIAVQHVCTIVSFRSANLCAAALAAILTRLRENKKVERLRTTVGMDGTLYKIHPQYPKRLHKVVRKLVPSCDVRFLLSESGSTKGAAMVTAVASRVQAQRKQIDRVLALFQLTREQLVDVQAKMRAELEYGLKKKSHGLATVRMLPTYVCGLPDGTEKGKFLALDLGGTNFRVLLVKIRSGRRSVRMYNKIFAIPLEIMQGTGEELFDHIVQCIADFLDYMGLKGASLPLGFTFSFPCRQMSIDKGTLIGWTKGFKATDCEGEDVVDMLREAIKRRNEFDLDIVAVVNDTVGTMMTCGYEDPNCEIGLIAGTGSNMCYMEDMRNIEMVEGGEGKMCINTEWGGFGDNGCIDDIWTRYDTEVDEGSLNPGKQRYEKMTSGMYLGEIVRQILIDLTKQGLLFRGQISERLRTRGIFETKFLSQIESDRLALLQVRRILQQLGLDSTCEDSIVVKEVCGAVSRRAAQLCGAGLAAIVEKRREDQGLEHLRITVGVDGTLYKLHPHFSRILQETVKELAPRCDVTFMLSEDGSGKGAALITAVAKRLQQAQKEN

These are yes or no findings as the source states them, for the method shown. Binding seen in cells or lysates may run through a third protein. Binding calls can cover weak binding; strength is not graded here.
